Reference: the supplement of paper PMC10849652
This is one part of the list.

By UniProt entry, the sequences of proteins in these tests, tags left out. Where a name states a change or a piece, a line headed by the entry shows the natural chain unless it says otherwise.
UniProt Q9HCU4: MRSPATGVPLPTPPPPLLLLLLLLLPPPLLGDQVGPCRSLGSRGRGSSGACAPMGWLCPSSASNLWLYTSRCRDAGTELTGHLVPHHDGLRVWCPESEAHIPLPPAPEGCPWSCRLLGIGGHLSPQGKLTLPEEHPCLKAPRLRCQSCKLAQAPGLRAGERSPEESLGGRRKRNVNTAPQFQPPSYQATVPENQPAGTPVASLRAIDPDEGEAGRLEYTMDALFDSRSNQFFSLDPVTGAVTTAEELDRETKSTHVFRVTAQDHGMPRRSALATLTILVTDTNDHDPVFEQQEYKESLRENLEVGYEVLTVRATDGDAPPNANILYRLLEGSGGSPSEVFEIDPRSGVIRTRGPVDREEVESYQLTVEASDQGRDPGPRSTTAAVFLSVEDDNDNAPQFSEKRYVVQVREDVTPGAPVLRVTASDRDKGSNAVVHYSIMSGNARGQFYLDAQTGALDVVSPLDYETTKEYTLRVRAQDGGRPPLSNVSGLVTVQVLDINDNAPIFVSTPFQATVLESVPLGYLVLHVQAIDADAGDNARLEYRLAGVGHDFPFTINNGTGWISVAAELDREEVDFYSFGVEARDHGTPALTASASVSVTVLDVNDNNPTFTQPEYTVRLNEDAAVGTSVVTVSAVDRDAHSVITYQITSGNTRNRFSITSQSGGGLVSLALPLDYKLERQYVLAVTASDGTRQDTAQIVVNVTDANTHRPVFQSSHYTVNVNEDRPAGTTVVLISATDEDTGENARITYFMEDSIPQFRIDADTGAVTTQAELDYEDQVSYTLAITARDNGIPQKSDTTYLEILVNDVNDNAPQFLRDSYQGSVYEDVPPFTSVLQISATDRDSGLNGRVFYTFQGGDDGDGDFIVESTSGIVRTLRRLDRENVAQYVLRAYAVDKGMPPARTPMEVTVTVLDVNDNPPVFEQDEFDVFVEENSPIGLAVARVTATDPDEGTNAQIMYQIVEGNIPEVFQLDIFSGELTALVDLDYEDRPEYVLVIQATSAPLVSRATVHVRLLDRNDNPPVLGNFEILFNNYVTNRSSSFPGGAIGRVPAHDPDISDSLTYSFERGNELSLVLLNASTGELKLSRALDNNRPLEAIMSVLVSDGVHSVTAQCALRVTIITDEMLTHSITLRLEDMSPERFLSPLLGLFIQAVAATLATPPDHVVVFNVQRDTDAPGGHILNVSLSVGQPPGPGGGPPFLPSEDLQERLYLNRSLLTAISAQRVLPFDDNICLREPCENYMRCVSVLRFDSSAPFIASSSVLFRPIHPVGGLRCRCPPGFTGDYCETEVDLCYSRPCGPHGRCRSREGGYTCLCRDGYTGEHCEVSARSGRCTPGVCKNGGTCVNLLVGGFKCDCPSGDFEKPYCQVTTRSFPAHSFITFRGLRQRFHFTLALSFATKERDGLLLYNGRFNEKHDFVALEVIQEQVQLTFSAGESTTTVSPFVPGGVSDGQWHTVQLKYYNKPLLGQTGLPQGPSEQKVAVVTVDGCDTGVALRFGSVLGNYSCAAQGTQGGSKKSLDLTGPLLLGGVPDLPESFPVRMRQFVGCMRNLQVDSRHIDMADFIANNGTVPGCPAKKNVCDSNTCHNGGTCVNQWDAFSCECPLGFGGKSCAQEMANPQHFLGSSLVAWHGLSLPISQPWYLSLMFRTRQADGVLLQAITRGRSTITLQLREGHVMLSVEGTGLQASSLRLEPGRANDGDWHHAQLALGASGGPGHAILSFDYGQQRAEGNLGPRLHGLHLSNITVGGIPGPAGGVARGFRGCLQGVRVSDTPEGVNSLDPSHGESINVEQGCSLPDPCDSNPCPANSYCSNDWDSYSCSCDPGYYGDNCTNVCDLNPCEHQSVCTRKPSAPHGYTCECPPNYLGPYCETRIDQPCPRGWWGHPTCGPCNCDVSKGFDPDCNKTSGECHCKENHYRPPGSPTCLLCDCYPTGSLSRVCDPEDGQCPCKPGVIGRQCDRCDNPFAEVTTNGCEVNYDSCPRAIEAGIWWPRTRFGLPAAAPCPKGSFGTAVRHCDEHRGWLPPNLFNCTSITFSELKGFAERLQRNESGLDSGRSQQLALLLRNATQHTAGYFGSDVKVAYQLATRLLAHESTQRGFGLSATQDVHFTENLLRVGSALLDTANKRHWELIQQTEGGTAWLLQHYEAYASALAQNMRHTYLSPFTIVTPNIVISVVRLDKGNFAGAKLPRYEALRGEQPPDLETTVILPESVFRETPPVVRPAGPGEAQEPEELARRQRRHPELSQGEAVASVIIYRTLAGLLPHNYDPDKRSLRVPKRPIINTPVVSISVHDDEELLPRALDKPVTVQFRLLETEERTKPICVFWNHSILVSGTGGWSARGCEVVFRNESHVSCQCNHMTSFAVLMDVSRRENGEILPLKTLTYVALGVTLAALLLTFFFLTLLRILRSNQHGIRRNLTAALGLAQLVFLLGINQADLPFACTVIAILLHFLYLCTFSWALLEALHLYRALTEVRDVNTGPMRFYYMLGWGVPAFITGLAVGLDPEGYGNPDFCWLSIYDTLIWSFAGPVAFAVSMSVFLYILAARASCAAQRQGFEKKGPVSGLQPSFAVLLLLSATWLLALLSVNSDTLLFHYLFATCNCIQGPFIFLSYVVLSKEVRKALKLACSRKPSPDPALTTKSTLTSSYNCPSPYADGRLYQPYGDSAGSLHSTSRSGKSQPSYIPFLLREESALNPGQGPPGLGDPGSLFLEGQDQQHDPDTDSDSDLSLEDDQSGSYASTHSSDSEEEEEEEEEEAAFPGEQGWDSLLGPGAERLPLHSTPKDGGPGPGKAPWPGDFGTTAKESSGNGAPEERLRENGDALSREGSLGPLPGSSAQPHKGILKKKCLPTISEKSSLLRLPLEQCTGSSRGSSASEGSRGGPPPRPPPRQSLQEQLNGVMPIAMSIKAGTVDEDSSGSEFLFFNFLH
UniProt Q9NRR3: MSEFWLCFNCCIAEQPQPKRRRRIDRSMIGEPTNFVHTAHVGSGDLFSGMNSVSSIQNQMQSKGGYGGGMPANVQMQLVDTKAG
UniProt Q9H3Q1: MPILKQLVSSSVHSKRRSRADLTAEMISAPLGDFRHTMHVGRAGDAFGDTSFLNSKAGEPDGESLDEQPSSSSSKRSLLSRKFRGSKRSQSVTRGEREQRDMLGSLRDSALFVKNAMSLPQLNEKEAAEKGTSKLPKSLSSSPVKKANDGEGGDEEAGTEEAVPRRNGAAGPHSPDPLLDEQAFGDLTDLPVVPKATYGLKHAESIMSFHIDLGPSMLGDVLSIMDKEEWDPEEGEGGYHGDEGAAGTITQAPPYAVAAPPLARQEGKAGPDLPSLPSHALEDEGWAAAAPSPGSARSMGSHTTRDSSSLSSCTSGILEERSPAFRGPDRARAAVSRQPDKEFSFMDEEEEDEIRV
UniProt Q6ZTR5: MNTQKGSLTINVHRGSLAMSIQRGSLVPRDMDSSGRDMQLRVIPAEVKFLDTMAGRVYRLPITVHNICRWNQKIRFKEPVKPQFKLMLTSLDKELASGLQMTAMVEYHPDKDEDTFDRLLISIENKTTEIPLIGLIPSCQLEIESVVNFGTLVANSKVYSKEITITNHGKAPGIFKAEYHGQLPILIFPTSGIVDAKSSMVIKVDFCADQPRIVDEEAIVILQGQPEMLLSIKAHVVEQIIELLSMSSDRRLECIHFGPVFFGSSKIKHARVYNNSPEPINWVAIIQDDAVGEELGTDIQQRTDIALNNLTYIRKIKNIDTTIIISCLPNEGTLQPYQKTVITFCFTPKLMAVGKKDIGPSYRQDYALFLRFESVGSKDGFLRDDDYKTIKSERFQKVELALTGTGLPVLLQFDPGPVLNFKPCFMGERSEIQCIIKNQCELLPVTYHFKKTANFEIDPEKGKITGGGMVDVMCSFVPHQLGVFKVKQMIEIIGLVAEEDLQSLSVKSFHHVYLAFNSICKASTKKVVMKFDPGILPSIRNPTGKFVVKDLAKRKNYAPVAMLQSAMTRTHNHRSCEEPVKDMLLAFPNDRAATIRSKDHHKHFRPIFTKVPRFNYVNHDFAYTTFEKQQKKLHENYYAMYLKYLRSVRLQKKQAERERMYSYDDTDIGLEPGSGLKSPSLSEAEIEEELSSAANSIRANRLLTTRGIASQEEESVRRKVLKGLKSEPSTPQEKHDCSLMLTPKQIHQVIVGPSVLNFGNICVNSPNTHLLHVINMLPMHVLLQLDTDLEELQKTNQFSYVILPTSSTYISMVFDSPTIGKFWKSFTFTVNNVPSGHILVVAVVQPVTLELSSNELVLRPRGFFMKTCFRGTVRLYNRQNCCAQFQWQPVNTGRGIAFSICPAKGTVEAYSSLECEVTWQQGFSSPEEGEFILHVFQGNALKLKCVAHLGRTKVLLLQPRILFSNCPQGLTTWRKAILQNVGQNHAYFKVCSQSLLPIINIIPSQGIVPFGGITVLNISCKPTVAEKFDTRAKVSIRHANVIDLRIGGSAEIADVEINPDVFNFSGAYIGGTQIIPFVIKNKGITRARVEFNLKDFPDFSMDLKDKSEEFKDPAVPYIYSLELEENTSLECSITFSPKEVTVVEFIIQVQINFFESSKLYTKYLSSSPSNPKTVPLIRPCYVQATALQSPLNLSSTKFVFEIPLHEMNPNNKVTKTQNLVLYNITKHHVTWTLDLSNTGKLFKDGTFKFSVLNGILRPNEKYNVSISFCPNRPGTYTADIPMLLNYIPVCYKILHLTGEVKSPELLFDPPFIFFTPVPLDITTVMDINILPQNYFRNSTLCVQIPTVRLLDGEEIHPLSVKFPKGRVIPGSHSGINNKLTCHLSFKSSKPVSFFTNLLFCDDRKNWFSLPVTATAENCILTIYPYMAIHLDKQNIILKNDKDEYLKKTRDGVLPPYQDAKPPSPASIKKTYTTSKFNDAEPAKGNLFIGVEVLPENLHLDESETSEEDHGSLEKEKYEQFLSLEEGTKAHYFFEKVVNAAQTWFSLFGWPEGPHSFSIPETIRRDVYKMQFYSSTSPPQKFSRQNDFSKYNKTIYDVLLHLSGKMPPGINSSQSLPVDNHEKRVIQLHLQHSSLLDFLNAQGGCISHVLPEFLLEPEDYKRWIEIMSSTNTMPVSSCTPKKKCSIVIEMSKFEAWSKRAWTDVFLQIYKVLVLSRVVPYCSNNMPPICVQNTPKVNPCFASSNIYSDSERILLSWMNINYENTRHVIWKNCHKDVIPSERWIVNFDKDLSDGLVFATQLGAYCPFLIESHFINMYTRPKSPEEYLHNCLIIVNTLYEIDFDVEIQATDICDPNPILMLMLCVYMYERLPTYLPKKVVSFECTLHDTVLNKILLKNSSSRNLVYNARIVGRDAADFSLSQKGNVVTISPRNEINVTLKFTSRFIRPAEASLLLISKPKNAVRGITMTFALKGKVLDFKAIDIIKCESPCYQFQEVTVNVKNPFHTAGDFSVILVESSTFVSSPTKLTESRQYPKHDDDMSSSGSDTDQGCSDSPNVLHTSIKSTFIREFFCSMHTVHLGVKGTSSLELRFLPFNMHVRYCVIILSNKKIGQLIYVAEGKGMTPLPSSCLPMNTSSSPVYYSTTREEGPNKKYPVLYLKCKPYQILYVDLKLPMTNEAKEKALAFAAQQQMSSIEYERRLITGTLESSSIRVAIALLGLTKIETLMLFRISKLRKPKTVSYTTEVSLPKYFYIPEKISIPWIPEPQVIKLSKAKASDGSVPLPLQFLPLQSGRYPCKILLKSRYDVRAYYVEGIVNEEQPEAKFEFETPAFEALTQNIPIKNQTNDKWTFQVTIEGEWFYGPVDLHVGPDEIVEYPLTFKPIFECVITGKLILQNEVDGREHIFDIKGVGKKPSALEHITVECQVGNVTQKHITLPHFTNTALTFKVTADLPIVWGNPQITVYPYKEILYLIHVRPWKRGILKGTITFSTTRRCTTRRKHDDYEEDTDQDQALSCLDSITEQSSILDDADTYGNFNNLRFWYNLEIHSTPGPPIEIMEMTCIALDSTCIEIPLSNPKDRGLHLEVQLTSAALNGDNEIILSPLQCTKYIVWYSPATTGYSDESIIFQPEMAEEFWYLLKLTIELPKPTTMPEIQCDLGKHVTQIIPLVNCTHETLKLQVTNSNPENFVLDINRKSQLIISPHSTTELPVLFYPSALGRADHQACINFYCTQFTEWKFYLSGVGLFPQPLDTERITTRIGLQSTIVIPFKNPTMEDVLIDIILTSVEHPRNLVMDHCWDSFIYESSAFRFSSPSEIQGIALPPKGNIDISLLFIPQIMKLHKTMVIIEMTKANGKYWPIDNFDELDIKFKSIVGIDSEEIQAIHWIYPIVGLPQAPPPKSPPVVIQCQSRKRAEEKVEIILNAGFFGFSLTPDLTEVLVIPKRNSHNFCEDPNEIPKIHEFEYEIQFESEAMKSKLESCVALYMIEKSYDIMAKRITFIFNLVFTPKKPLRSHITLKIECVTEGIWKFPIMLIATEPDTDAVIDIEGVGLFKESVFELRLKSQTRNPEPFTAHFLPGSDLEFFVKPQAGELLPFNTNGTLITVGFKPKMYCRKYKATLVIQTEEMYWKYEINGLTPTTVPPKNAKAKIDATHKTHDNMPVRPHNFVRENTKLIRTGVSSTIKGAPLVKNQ

Each target was assayed with CO[C@H]1C[C@@H]2CC[C@@H](C)[C@@](O)(O2)C(=O)C(=O)N2CCCC[C@H]2C(=O)O[C@H]([C@H](C)C[C@@H]2CC[C@H](n3cnnn3)[C@H](OC)C2)CC(=O)[C@H](C)/C=C(\C)[C@@H](O)[C@@H](OC)C(=O)[C@H](C)C[C@H](C)/C=C/C=C/C=C/1C [zotarolimus] (assay: log2 fold change, soluble protein after heating vs DMSO (PISA); higher = thermal stabilisation; K562 cells, 10 uM, 30 min; active = over 0.2 and 3.5 SD of the protein, either way, in both replicates (recomputed)).
Procedure, shortened: (§1)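 K562 cells at 2×10^6 cells/mL were treated for 30 min with 10 μM compound, and aliquots were heated for 3 min over 48°C-58°C before pooling. Extraction used PBS with 0.5% NP-40 at 4°C, and soluble protein was the supernatant after 21,000xg for 90 min, measured by TMTpro 16plex LC-MS/MS with channel sums equalised. Thermal stability values, relative to control samples and from duplicates, are log2 fold changes.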

log2 fold change, inactive:
CELSR2 (UniProt Q9HCU4) -0.139, CEP57 (UniProt Q86XR8) 0.075, CDS1 (UniProt Q92903) -0.249, CDC42SE2 (UniProt Q9NRR3) -0.024, CENPV (UniProt Q7Z7K6) 0.099, CENPQ (UniProt Q7L2Z9) -0.312, CDR2L (UniProt Q86X02) -0.077, CERS6 isoform 2 (UniProt Q6ZMG9) -0.049, CEBPG (UniProt P53567) -0.158, CDK19 (UniProt Q9BWU1) -0.069, CEBPZ (UniProt Q03701) 0.173, CHIC2 (UniProt Q9UKJ5) -0.068, CHD5 (UniProt Q8TDI0) 0.142, CDC42EP4 (UniProt Q9H3Q1) -0.187, CFB (UniProt P00751) -0.26, CENPK (UniProt Q9BS16) -0.117

What follows are targets tested with COc1cc(C(=O)O)ccc1NC(=O)[C@@H]1N[C@@H](CC(C)(C)C)[C@](C#N)(c2ccc(Cl)cc2F)[C@H]1c1cccc(Cl)c1F [idasanutlin] in the same assay as above.
Procedure, shortened: as §1

log2 fold change, inactive:
CEND1 (UniProt Q8N111) 0.017, CFAP47 (UniProt Q6ZTR5) -0.496, CDC42SE2 (UniProt Q9NRR3) 0.049, CHMP2A (UniProt M0R1T5) -0.359, CDR2L (UniProt Q86X02) 0.034, CERS6 isoform 2 (UniProt Q6ZMG9) 0.123, CEBPG (UniProt P53567) -0.055, CDK19 (UniProt Q9BWU1) -0.161, CHD1 (UniProt O14646) -0.041, CHIC1 (UniProt Q5VXU3) 0.136, CHIC2 (UniProt Q9UKJ5) -0.023, CEFIP (UniProt Q711Q0) 0.105, CDK2AP1 (UniProt O14519) -0.251, CHD5 (UniProt Q8TDI0) 0.064, CEP85 (UniProt Q6P2H3) 0.333, CEBPZOS (UniProt A8MTT3) -0.021
